Laboratory results reported in PubChem BioAssay AID1347076 (National Center for Advancing Translational Sciences (NCATS), 2019).
In all, about 400,000 compounds went through this assay and about 13,000 (3.2%) were called active. This list was built around the results that the source calls inconclusive (neither active nor inactive); the mix of calls is not that of the screen. The call rests on the fitted dose curve; in most records, active means well fitted cell-killing curve with a large enough effect; inconclusive means small, poorly fitted or top-dose-only effect, or effect the other way; inactive means flat fitted curve, though single readings scatter. A potency beside an inconclusive call is a rough fit, not a confirmed value.

Test: qHTS assay for MDR1-selective chemotherapeutics: Primary screen using the drug-selected MDR subline cells KB-V1; further: nearly all actives have a fitted effect of over 60% in size
Conditions: KB-V1 MDR cells viability, CellTiter-Glo, 72 h; activity change, negative = cytotoxicity: at 46.1 µM (top of the series)
Summary of the method: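 Drug-selected KB-V1 cells, grown in DMEM lacking phenol red with 10% FBS, receive compound titrations; after three days at 37 degrees C, surviving cell ATP is quantified by CellTiter-Glo luminescence and responses normalized and curve-fitted.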
On the % scale 0 is the no-effect control and ±100 the full control effect; potency means the concentration at half of the fitted maximal effect.

Question: For `CCOC(=O)CCc1c(C)c(C#N)c2[nH]c3ccccc3n2c1=O`, which Potency is on record?
Answer: inconclusive: 16.4 µM [cytotoxic, single point]

Question: Which Potency does the source give for `CN1CCN(c2ccc(NC(=O)c3ccc(Br)o3)cc2)CC1` here?
Answer: inactive

Question: With `CCN=C1Sc2nc3ccc(OCC)cc3cc2CN1CCOC` as the molecule, how does the Potency read?
Answer: inconclusive: 32.6 µM [cytotoxic, single point]

Question: Which Potency does the source give for `CCc1ccccc1NC(=O)c1ccc2c(c1)nnn2C1CCCC1` here?
Answer: inactive

Question: Which Potency does the source give for `CS(=O)(=O)c1ccc(Nc2nc(C(N)Cc3ccc(Cl)cc3)cs2)cc1` (configuration not stated) here?
Answer: inconclusive: 20.6 µM [cytotoxic, single point]

Question: Which Potency does the source give for `C[C@@H]1CC[C@H]2C(=O)N3[C@@H](CC[C@@H](C)[C@@H]3c3ccc(Br)cc3)C(=O)N2[C@H]1c1ccc(Br)cc1` here?
Answer: inconclusive: 29.1 µM [cytotoxic, single point]

Question: With `COc1ccc(OC)c(C2C=C(c3ccc(C)c(C)c3)Nc3nnnn32)c1` (configuration not stated) as the molecule, how does the Potency read?
Answer: active: 6.51 µM

Question: With `O=C1NCCc2c1[nH]c1ccc([N+](=O)[O-])cc21` as the molecule, how does the Potency read?
Answer: active: 0.92 µM

Question: With `Cc1cccc(Oc2nc(-c3ccccn3)nc3ccccc23)c1` as the molecule, how does the Potency read?
Answer: inconclusive: 2.31 µM [cytotoxic, full curve]

Question: For `Cc1cccc(C)c1NC(=O)CN(C)C(=O)c1ccc(-n2cncn2)c([N+](=O)[O-])c1`, which Potency is on record?
Answer: inactive

Question: With `Cc1cccc(NC(=O)c2nc[nH]c2C(=O)NCCCCNC(=O)c2[nH]cnc2C(=O)Nc2cccc(C)c2)c1` as the molecule, how does the Potency read?
Answer: inconclusive: 29.1 µM [cytotoxic, single point]

Question: Which Potency does the source give for `O=C1NC(Cc2ccccc2)c2nc3ccccc3c(=O)n2-c2cc3ccccc3cc21` (configuration not stated) here?
Answer: inconclusive: 23.1 µM [cytotoxic, single point]

Question: With `O=C(CSc1nnnn1-c1cccc(C(=O)O)c1)NC(c1ccccc1)c1ccccc1` as the molecule, how does the Potency read?
Answer: inconclusive: 29.1 µM [rising, single point]

Question: For `O=C1CCCc2c1nc(-c1ccc([N+](=O)[O-])cc1)n2O`, which Potency is on record?
Answer: inactive

Question: With `CCN(CC)C(=O)c1ccc(CS(=O)(=O)c2ccc(Br)cc2)cc1` as the molecule, how does the Potency read?
Answer: inconclusive: 11.6 µM [cytotoxic, partial curve]

Question: With `COc1ccc2c(c1)OC[C@H]1[C@H]2N2C(=O)c3ccccc3NC(=O)[C@@]2(C)[C@H]1c1ccccc1` as the molecule, how does the Potency read?
Answer: inconclusive: 29.1 µM [cytotoxic, single point]

Question: For `COC(=O)[C@@]1(Cc2ccc(F)cc2)[C@H]2c3cc(C(=O)N(C)C)n(Cc4ccc(S(C)(=O)=O)cc4)c3C[C@H]2CN1C(=O)c1ccccc1`, which Potency is on record?
Answer: inconclusive: 20.6 µM [cytotoxic, single point]

Question: With `COCC1CCCCN1C(=O)c1cccc(OC2CCN(C(=O)C3CC3)CC2)c1` (configuration not stated) as the molecule, how does the Potency read?
Answer: inconclusive: 18.4 µM [cytotoxic, single point]

Question: For `Cc1ccc(N2CCN(S(=O)(=O)c3ccc(Cl)c4ccccc34)CC2)c(C)c1`, which Potency is on record?
Answer: inactive

Question: With `O=C(N1CCN(Cc2ccccc2)CC1)C(Cl)(Cl)Cl` as the molecule, how does the Potency read?
Answer: inconclusive: 29.1 µM [cytotoxic, partial curve, poor fit]

Question: Which Potency does the source give for `CCOC(=O)[C@]12CCC=C1N(Cc1ccc3c(c1)OCO3)C(=O)[C@H](CC(=O)NCCCCc1ccccc1)C2` here?
Answer: inconclusive: 0.651 µM [cytotoxic, full curve, poor fit]

Question: With `O=C(c1ccc(N2CCCCC2)c([N+](=O)[O-])c1)N(c1ccccn1)c1ccccn1` as the molecule, how does the Potency read?
Answer: inconclusive: 9.2 µM [cytotoxic, partial curve]

Question: With `Cc1cn2c(=O)cc(COc3ccccc3NC(=O)c3ccco3)nc2s1` as the molecule, how does the Potency read?
Answer: inactive

Question: Which Potency does the source give for `Cc1nc2sccn2c(=O)c1S(=O)(=O)NCCc1ccc(Cl)cc1` here?
Answer: inconclusive: 29.1 µM [rising, single point]

Question: With `Cc1ccc(CNS(=O)(=O)c2cc3[nH]c(=O)c(=O)[nH]c3cc2C)cc1` as the molecule, how does the Potency read?
Answer: inconclusive: 29.1 µM [rising, single point]

Question: For `C=CC[C@@H](CC(=O)NCCO)C(=O)N[C@@H](COC(=O)[C@@H](CC=C)CC(=O)OC(C)(C)C)Cc1c[nH]c2ccccc12`, which Potency is on record?
Answer: inactive

Question: Which Potency does the source give for `CCN(CC)CCn1c(NCc2ccco2)nc2ccccc21` here?
Answer: inconclusive: 9.2 µM [cytotoxic, partial curve, poor fit]

Question: Which Potency does the source give for `CN(C)c1ccc(/C=C2\NC(=S)N(Cc3ccccc3)C2=O)cc1` here?
Answer: inconclusive: 3.66 µM [cytotoxic, full curve]

Question: Which Potency does the source give for `Cc1cccc(NC(=O)c2ccc(S(=O)(=O)NCc3ccco3)cc2)n1` here?
Answer: inconclusive: 18.4 µM [cytotoxic, partial curve, poor fit]

Question: With `Cc1ccc(-c2nn(C)c(=O)c3ccccc23)cc1CNC(=O)c1ccco1` as the molecule, how does the Potency read?
Answer: inconclusive: 20.6 µM [cytotoxic, single point]

Question: For `CCCCn1c(N)c(N(CC(C)C)C(=O)Cc2ccc(S(=O)(=O)N3CCOCC3)s2)c(=O)[nH]c1=O`, which Potency is on record?
Answer: inconclusive: 20.6 µM [cytotoxic, single point]

Question: With `COc1ccc(NC(=O)c2sc3nc(N4CCOCC4)c4c(c3c2N)CC(C)(C)OC4)cc1` as the molecule, how does the activity change, negative = cytotoxicity read?
Answer: inconclusive: -14.9%

Question: Which Potency does the source give for `Cc1nc(CNS(=O)(=O)c2ccc3c(c2)OCCO3)cs1` here?
Answer: inconclusive: 29.1 µM [cytotoxic, single point]

Question: With `O=C(/C=C/[C@H]1O[C@@H](n2cnc3c(NC(=O)c4ccccc4)ncnc32)[C@H](O)[C@@H]1O)NCc1ccc2c(c1)OCO2` as the molecule, how does the Potency read?
Answer: inactive

Question: Which Potency does the source give for `CCOc1cc(NC(=S)Nc2cccc(OC)c2)c(OCC)cc1NC(=O)c1ccc(C)cc1` here?
Answer: inconclusive: 2.31 µM [cytotoxic, full curve]

Question: For `CC(C)CN1C(=O)/C(=C(/C#N)C(=O)NC2CCCCC2)c2ccccc21`, which Potency is on record?
Answer: inconclusive: 20.6 µM [cytotoxic, single point]

Question: For `O=C(CN1CCCCC1)NNc1nc(-c2ccccc2)c2cc(Br)ccc2n1`, which activity change, negative = cytotoxicity is on record?
Answer: inconclusive: -52.6%

Question: With `N/C(=N\N=C\c1ccc2c(c1)OCO2)c1nonc1N` as the molecule, how does the Potency read?
Answer: inconclusive: 29.1 µM [cytotoxic, single point]

Question: With `O=C1C2CCCCC2C(=O)N1c1ccc(NC2CCCCC2)c([N+](=O)[O-])c1` (configuration not stated) as the molecule, how does the Potency read?
Answer: inactive

Question: With `O=C(NCc1ccco1)/C(=C/c1cccc(C(F)(F)F)c1)c1nc2ccccc2[nH]1` as the molecule, how does the Potency read?
Answer: active: 20.6 µM

Question: With `COc1cc(/C=C2\SC(=S)N(CCC(=O)Nc3ccc(O)cc3)C2=O)cc(OC)c1OC` as the molecule, how does the Potency read?
Answer: inactive

Question: With `COc1cc(N/N=C/c2ccccc2O)ncn1` as the molecule, how does the Potency read?
Answer: inconclusive: 1.64 µM [cytotoxic, full curve]

Question: For `CCOC(=O)c1cc2occc2n1CC(=O)NC1CCC(C)CC1` (configuration not stated), which Potency is on record?
Answer: inconclusive: 18.4 µM [cytotoxic, partial curve]

Question: For `CSc1nc2sc3c(c2c(=O)n1Cc1ccccc1)CCC(C(C)(C)C)C3` (configuration not stated), which Potency is on record?
Answer: inconclusive: 7.31 µM [rising, partial curve]

Question: For `O=C(COC(=O)c1cc(-c2ccccc2)nc2ccccc12)c1ccc(Br)cc1`, which Potency is on record?
Answer: inactive

Question: For `C=CCOC(=O)C1=C[C@@H](c2ccc(Br)cc2)C[C@@H](OCc2ccc(CO)cc2)O1`, which Potency is on record?
Answer: inactive

Question: For `CCNc1ccc(C(=O)OCC(=O)Nc2cc(C)on2)cc1[N+](=O)[O-]`, which Potency is on record?
Answer: inactive

Question: For `O=C(NCc1ccccc1)C1=C[C@H](C2CCCCC2)C[C@H](OCCCCO)O1`, which Potency is on record?
Answer: inactive

Question: Which Potency does the source give for `Cc1ccsc1-c1nc(CN2CCCC2c2ccc(F)cc2)c(C)o1` (configuration not stated) here?
Answer: inactive

Question: For `CCN1CCc2nc3sc(C(=O)Nc4cccc(Cl)c4C)c(N)c3cc2C1`, which Potency is on record?
Answer: active: 6.51 µM

Question: For `CCOC(=O)n1c(=O)n(C)c2ccc(Br)cc21`, which Potency is on record?
Answer: inconclusive: 29.1 µM [cytotoxic, single point]

Question: With `COc1ccc(/C=N/OC/C(O)=C(\C#N)c2nc3ccccc3[nH]2)cc1OC` as the molecule, how does the Potency read?
Answer: inactive

Question: Which Potency does the source give for `O=C1/C(=C/N(C(=O)c2ccco2)c2ccc(Cl)cc2)Sc2ccccc21` here?
Answer: inconclusive: 32.6 µM [cytotoxic, single point]

Question: Which Potency does the source give for `Nc1cc(CN2C(=O)c3ccccc3C2=O)cc(Cl)c1O` here?
Answer: inactive

Question: Which Potency does the source give for `COc1ccc(CCNC(=O)c2ccc(CN3CCC(Cc4ccccc4)CC3)cc2)cc1OC` here?
Answer: active: 3.66 µM

Question: Which Potency does the source give for `Cc1cccc(NS(=O)(=O)c2cccc(C(=O)N3CCCC(C(F)(F)F)C3)c2)c1` (configuration not stated) here?
Answer: inconclusive: 16.4 µM [cytotoxic, partial curve, poor fit]

Question: Which Potency does the source give for `Cc1cc(C)c(S(=O)(=O)NCC(c2ccc3c(c2)OCO3)N2CCOCC2)c(C)c1` (configuration not stated) here?
Answer: active: 10.3 µM

Question: Which Potency does the source give for `CCOC(=O)C1=CCC(c2ccccc2C)N(S(=O)(=O)c2ccc(C)cc2)C1` (configuration not stated) here?
Answer: inconclusive: 18.4 µM [cytotoxic, single point]

Question: Which Potency does the source give for `COc1ccc(-c2c(C(=O)c3ccccc3)[nH]c(N)c2C(=O)NC2CC2)cc1OC` here?
Answer: inactive

Question: For `COc1ccc2c3c(ccc2c1)C(=O)/C(=C/O)CC3`, which Potency is on record?
Answer: inconclusive: 25.9 µM [cytotoxic, single point]

Question: With `COc1cccc(-c2cn3nc4c(nc3n2)CCCC4)c1` as the molecule, how does the Potency read?
Answer: inconclusive: 8.2 µM [cytotoxic, partial curve, poor fit]

Question: For `Cc1ccc(C2=NN(C(=O)CSc3nnnn3C)C(c3ccco3)C2)cc1` (configuration not stated), which Potency is on record?
Answer: inactive

Question: With `CCOC(=O)[C@]12CCC=C1N(Cc1cccc3ccccc13)C(=O)[C@H](CC(=O)NCc1ccc(OC)c(OC)c1)C2` as the molecule, how does the Potency read?
Answer: inconclusive: 20.6 µM [cytotoxic, single point]

Question: Which Potency does the source give for `Cc1sc(NC(=O)c2ccco2)c(C(c2ccccc2)N2CCC(C)CC2)c1C` (configuration not stated) here?
Answer: inconclusive: 20.6 µM [cytotoxic, single point]

Question: With `COc1cc(NC(=O)CN2CCN(c3ccccc3O)CC2)c(C)cc1[N+](=O)[O-]` as the molecule, how does the Potency read?
Answer: inconclusive: 20.6 µM [cytotoxic, partial curve, poor fit]

Question: Which Potency does the source give for `COc1ccc(C2=CCCC2)c(OC)c1` here?
Answer: inactive
